The chains behind the UniProt entries cited, without tags or fusion partners. Where a name states a change or a piece, a line headed by the entry shows the natural chain unless it says otherwise.
UniProt O95372: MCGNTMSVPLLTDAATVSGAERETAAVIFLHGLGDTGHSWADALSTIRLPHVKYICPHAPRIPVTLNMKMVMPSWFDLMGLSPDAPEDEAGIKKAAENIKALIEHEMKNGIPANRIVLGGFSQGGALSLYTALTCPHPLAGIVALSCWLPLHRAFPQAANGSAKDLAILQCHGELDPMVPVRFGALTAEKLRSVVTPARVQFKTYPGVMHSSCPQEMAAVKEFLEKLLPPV
UniProt O95298, whole entry: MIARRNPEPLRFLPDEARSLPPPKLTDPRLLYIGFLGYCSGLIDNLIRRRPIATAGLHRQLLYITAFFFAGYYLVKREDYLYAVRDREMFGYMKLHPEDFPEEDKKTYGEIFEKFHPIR
UniProt O94868: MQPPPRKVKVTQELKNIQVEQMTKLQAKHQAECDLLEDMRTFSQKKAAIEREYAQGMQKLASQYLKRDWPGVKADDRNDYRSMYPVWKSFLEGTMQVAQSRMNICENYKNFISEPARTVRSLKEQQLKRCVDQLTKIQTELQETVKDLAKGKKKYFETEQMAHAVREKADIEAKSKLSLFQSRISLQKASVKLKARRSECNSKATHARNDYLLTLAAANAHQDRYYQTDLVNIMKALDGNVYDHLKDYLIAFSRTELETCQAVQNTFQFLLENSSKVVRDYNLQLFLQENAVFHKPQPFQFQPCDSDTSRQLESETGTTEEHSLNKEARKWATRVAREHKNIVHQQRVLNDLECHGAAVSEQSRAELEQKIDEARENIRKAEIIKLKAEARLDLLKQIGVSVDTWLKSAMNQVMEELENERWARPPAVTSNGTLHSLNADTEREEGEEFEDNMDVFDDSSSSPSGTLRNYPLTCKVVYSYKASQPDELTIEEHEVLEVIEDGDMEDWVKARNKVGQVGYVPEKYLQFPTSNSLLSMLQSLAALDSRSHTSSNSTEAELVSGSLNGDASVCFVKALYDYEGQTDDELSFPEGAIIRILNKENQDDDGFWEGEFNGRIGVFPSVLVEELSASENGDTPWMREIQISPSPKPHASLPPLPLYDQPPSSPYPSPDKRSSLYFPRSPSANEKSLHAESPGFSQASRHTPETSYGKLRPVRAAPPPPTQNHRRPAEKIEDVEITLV
UniProt O95785: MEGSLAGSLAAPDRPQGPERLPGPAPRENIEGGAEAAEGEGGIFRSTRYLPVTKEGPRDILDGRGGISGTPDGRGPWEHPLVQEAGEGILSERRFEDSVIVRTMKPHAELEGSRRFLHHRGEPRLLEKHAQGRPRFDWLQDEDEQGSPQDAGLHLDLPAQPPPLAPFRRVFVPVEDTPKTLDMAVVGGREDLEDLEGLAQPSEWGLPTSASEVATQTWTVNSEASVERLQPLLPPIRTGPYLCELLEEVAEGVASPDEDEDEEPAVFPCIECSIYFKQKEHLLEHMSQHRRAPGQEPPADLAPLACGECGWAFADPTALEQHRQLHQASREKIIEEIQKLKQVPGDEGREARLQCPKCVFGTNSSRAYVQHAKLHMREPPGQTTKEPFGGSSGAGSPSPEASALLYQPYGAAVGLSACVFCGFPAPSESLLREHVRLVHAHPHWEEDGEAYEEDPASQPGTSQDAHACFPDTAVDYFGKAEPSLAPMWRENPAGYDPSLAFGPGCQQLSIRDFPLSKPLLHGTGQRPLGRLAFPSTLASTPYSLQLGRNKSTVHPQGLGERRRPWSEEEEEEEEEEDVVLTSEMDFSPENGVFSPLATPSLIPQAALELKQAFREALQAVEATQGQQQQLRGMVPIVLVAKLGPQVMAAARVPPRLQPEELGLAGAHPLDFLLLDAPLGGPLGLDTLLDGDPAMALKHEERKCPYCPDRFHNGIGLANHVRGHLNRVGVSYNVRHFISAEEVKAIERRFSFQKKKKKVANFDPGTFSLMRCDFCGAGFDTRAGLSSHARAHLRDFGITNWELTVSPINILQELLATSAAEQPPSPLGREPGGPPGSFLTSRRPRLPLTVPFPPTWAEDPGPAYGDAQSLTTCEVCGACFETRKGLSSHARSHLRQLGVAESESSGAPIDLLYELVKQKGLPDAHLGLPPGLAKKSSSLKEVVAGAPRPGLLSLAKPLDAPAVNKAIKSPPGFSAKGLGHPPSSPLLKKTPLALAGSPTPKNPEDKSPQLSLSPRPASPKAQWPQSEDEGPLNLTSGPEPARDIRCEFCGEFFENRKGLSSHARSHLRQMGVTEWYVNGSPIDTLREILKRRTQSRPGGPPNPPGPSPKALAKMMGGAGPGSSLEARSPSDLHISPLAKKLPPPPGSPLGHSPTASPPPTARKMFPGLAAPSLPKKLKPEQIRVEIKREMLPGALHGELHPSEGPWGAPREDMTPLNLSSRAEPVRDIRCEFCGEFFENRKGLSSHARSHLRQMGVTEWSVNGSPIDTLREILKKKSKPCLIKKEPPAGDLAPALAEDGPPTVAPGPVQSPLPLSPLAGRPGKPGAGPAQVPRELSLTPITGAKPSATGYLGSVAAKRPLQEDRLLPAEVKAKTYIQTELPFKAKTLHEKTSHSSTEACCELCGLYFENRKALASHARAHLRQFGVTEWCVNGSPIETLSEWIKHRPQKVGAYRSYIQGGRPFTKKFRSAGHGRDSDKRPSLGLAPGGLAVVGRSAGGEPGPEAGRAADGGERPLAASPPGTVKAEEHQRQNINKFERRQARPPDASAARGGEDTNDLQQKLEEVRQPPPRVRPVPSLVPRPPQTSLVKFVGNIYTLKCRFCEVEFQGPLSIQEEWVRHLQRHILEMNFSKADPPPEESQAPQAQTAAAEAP
UniProt O75718: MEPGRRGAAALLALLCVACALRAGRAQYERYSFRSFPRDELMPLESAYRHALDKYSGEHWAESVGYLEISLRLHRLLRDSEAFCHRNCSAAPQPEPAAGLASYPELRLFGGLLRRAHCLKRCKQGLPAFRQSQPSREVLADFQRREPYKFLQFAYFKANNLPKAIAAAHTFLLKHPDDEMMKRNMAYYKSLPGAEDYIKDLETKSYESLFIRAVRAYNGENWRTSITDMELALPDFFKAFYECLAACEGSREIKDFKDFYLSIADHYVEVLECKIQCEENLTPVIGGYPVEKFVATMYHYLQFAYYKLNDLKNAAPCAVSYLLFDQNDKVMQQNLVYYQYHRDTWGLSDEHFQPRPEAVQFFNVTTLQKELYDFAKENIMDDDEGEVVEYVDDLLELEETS
UniProt O96013: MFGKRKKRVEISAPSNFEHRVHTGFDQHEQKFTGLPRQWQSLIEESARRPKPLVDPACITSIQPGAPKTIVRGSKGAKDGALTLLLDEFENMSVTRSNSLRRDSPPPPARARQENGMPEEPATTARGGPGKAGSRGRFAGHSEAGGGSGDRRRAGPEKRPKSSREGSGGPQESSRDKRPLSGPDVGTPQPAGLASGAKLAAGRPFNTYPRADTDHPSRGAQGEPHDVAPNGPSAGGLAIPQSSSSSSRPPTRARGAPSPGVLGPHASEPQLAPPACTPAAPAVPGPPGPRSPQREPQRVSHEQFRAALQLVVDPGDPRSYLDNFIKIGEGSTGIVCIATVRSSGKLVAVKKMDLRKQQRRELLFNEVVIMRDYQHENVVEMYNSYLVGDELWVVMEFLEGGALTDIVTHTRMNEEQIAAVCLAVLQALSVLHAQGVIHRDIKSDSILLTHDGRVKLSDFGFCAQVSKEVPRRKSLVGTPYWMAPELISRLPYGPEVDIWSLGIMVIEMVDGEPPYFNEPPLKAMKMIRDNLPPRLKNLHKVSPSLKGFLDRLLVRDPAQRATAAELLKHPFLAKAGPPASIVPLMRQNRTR
UniProt O94782: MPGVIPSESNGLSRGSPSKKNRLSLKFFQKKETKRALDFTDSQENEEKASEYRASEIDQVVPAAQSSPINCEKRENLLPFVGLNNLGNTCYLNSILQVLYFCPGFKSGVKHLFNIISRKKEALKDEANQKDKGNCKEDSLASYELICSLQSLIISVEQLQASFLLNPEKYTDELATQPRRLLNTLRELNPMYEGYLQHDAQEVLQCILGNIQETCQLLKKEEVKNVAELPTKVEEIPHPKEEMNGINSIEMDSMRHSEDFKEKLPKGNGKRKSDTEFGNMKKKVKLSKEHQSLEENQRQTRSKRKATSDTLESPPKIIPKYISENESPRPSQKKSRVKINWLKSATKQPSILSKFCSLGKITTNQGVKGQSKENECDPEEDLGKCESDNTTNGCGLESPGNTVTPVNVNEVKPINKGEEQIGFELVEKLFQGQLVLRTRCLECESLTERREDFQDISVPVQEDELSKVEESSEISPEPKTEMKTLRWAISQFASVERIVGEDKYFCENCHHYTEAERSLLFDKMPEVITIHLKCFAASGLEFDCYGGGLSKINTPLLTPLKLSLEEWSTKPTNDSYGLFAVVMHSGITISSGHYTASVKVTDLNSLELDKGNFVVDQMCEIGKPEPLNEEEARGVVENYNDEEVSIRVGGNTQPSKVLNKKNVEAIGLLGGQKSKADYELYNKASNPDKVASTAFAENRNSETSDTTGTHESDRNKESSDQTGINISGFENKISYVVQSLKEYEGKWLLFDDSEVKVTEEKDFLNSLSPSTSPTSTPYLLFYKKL
UniProt O95626: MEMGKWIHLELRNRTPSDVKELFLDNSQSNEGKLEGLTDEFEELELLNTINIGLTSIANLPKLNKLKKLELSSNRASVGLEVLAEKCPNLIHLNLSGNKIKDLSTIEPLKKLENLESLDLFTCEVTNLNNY
UniProt O75469: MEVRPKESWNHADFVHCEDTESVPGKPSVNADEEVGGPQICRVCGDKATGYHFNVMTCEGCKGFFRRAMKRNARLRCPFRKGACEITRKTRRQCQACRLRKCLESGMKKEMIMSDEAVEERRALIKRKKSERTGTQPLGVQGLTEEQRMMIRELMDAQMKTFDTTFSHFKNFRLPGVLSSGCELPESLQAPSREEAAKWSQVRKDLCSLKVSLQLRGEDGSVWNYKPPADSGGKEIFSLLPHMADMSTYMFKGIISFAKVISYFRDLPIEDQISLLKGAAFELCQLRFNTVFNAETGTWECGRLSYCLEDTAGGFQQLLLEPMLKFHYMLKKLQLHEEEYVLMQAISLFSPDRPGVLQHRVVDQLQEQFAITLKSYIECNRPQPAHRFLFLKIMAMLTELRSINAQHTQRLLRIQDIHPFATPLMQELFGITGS
UniProt O95429: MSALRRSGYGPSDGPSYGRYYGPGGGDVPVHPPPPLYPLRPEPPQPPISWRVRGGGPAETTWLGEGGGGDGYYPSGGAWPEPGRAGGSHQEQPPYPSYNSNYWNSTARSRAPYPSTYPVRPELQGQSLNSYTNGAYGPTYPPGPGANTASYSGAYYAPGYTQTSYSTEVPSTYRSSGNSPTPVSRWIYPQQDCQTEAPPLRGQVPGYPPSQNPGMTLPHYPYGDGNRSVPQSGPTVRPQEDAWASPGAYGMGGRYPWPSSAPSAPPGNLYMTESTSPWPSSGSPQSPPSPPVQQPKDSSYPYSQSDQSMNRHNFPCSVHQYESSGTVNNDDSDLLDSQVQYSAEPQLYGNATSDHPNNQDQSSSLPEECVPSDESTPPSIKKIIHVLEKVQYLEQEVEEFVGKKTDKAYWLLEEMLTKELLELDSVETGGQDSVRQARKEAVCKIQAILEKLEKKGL
UniProt O95625: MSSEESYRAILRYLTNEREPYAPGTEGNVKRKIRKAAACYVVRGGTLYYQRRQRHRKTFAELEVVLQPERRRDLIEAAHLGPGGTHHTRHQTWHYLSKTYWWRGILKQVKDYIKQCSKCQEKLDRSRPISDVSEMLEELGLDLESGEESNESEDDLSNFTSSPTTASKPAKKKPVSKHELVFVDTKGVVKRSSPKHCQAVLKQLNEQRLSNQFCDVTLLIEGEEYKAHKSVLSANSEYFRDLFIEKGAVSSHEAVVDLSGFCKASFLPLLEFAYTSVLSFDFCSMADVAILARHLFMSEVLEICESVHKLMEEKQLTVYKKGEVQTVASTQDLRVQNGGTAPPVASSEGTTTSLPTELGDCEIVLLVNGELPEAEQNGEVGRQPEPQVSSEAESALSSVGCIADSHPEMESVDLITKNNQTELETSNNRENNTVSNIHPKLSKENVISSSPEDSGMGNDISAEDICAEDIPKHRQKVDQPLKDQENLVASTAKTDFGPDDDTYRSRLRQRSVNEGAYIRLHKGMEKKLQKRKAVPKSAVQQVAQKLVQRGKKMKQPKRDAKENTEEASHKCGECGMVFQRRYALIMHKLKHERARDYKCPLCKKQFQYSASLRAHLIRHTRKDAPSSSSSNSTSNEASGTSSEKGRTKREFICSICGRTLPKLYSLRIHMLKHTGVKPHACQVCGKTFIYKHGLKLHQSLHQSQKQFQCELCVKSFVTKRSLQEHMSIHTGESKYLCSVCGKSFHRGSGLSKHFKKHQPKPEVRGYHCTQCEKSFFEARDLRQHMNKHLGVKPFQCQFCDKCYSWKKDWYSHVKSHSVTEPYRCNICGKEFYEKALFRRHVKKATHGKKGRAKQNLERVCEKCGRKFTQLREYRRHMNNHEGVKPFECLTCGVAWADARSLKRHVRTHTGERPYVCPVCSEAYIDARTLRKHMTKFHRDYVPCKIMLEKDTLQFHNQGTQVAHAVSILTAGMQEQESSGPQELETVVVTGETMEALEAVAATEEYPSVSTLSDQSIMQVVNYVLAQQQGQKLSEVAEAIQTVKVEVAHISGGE

This is one part of the list. Most values lie at the level of the controls, where differences are scatter.
Each target was assayed with Cc1nc(Nc2ncc(C(=O)Nc3c(C)cccc3Cl)s2)cc(N2CCN(CCO)CC2)n1 [dasatinib] (assay: log2 fold change of tryptic peptide abundance, ligand vs vehicle (limited proteolysis) (log2 ratio); higher = more trypsin-susceptible (destabilized)). Settings: ligand concentration: 5 uM; sample: K562 cleared lysate.
Work on “LYPLA2 (peptide sequence: TYPGVMHSSCPQEMAAVK, peptide start residue: 204) (UniProt O95372)” yielded a log2 fold change of -0.143. “UniProt O94874 (peptide sequence: QISTLESVSTSK, peptide start residue: 403)” was tested, and the log2 fold change was 0.625. With “NDUFC2 (peptide sequence: LHPEDFPEEDKK, peptide start residue: 95) (UniProt O95298)” the log2 fold change was -0.272. “FCHSD2 (peptide sequence: MNICENYK, peptide start residue: 102) (UniProt O94868)” gave a log2 fold change of 0.454. For “WIZ (peptide sequence: EVVAGAPRPGLLSLAK, peptide start residue: 940) (UniProt O95785)”, the log2 fold change was -0.537. Work on “CRTAP (peptide sequence: FLQFAYFK, peptide start residue: 150) (UniProt O75718)” yielded a log2 fold change of -0.116. “PAK4 (peptide sequence: DIKSDSILLTHDGR, peptide start residue: 440) (UniProt O96013)” showed a log2 fold change of -0.381. For “UniProt O75771 (peptide sequence: EGLALMMQLAR, peptide start residue: 222)”, the log2 fold change was -0.403. In the case of “MYCBP2 (peptide sequence: VYNATSDADLKEHMVGIIFSR, peptide start residue: 3939) (UniProt O75592)”, the log2 fold change was -0.46. Target “SF3B1 (peptide sequence: IADREDEYKK, peptide start residue: 112) (UniProt O75533)” has a log2 fold change of 0.538. “CIAO1 (peptide sequence: HVVWHPSQELLASASYDDTVK, peptide start residue: 155) (UniProt O76071)” was tested, and the log2 fold change was 0.172. “ZFYVE9 (peptide sequence: LQIPKPLSDHLQNDFPANSGNNTK, peptide start residue: 589) (UniProt O95405)” gave a log2 fold change of 0.379. Work on “USP1 (peptide sequence: VASTAFAENR, peptide start residue: 690) (UniProt O94782)” yielded a log2 fold change of 0.535. “UniProt O95696 (peptide sequence: LDAGLTNGFGGAR, peptide start residue: 819)” gave a log2 fold change of -0.278. “UniProt O94927 (peptide sequence: TVGVLVSQR, peptide start residue: 300)” was tested, and the log2 fold change was -0.279. “UniProt O95626 (peptide sequence: IKDLSTIEPLK, peptide start residue: 100)” showed a log2 fold change of 0.0524. Work on “SBF1 (peptide sequence: IHPEPVIR, peptide start residue: 392) (UniProt O95248)” yielded a log2 fold change of -0.207. For “PAGE1 (peptide sequence: VCLRNEEQMK, peptide start residue: 84) (UniProt O75459)”, the log2 fold change was 0.141. Work on “UniProt O94953 (peptide sequence: EAEGAEEDGRGK, peptide start residue: 433)” yielded a log2 fold change of 1.1. For “LRCH4 (peptide sequence: RRPDTLQLWQER, peptide start residue: 403) (UniProt O75427)”, the log2 fold change was -0.124. With “OFD1 (peptide sequence: RLSSTPLPK, peptide start residue: 733) (UniProt O75665)” the log2 fold change was -0.247. In the case of “ETHE1 (peptide sequence: TDFQQGCAK, peptide start residue: 164) (UniProt O95571)”, the log2 fold change was -0.255. “UniProt O75469 (peptide sequence: KCLESGMKK, peptide start residue: 101)” gave a log2 fold change of 0.396. “CD2BP2 (peptide sequence: ETVAGALRR, peptide start residue: 169) (UniProt O95400)” gave a log2 fold change of -0.338. Target “BAG4 (peptide sequence: SGYGPSDGPSYGR, peptide start residue: 7) (UniProt O95429)” has a log2 fold change of -0.116. For “FAM13A (peptide sequence: LRDFEDNFFR, peptide start residue: 969) (UniProt O94988)”, the log2 fold change was 0.197. Target “PSMG1 (peptide sequence: TSLEVSLLEK, peptide start residue: 56) (UniProt O95456)” has a log2 fold change of 0.377. In the case of “UniProt O75526 (peptide sequence: VEADRPGK, peptide start residue: 2)”, the log2 fold change was 0.0978. With “ZBTB11 (peptide sequence: KTFAELEVVLQPER, peptide start residue: 57) (UniProt O95625)” the log2 fold change was 0.418.

From the supplement of paper PMC12819154, “High-throughput peptide-centric local stability assay extends protein–ligand identification to membrane proteins, tissues and bacteria” (Nature Structural & Molecular Biology, 2025)
